Test results as given in patent US20040175375A1 (SEOUL NATIONAL UNIVERSITY INDUSTRY FOUNDATION, published 2004).
These are yes or no findings as the source states them, for the method shown. Binding seen in cells or lysates may run through a third protein. Sequences can lack the tags named with a protein.

Target: PI3K
Experiment: co-immunoprecipitation from HCT116 cells, western blot

B1: HA-(p38/JTV-1) (protein, not shown: small tags and cut ends)
chain: MPMYQVKPYHGGGAPLRVELPTCMYRLPNVHGRSYGPAPGAGHVQEESNLSLQALESRQDDILKRLYELKAAVDGLSKMIQTPDADLDVTNIIQADEPTTLTTNALDLNSVLGKDYGALKDIVINANPASPPLSLLVLHRLLCEHFRVLSTVHTHSSVKSVPENLLKCFGEQNKKQPRQDYQLGFTLIWKNVPKTQMKFSIQTMCPIEGEGNIARFLFSLFGQKHNAVNATLIDSWVDIAIFQLKEGSSKEKAAVFRSMNSALGKSPWLAGNELTVADVVLWSVLQQIGGCSVTVPANVQRWMRSCENLAPF
**Q.** For B1, which binding is on record?
**A.** no binding
